From paper PMC4697166 come the findings set out here.

By UniProt entry, the sequences of proteins in these tests, tags left out.
UniProt P32121: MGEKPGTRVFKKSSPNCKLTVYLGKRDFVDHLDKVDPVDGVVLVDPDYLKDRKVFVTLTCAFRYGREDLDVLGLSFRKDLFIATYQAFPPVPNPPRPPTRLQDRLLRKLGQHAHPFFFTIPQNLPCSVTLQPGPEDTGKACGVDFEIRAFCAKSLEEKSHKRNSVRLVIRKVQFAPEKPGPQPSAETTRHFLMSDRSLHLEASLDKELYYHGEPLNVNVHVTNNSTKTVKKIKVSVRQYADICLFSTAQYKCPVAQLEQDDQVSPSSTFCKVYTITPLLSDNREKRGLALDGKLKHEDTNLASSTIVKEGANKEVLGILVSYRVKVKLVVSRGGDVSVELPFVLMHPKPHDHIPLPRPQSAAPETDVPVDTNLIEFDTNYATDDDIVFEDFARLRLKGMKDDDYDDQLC

These are yes or no findings as the source states them, for the method shown. In cells and extracts the contact can be indirect. Some entries that bind do so weakly or less than the wild type. Sequences can lack the tags named with a protein.

The target in this assay is T1, human free fatty acid 2 receptor with enhanced yellow fluorescent protein fused to its C terminus (human) (UniProt O15552).
T1 sequence: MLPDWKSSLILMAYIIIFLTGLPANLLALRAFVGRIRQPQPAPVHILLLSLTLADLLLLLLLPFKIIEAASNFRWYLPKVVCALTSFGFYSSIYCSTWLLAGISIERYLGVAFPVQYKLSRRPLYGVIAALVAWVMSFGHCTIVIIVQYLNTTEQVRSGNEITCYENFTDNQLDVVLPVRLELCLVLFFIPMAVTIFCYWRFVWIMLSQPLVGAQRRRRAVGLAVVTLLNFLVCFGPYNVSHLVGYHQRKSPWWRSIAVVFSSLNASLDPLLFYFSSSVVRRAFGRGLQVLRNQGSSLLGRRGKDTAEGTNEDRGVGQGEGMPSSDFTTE
Description: FRET or BRET; HEK293T cells co-transfected 4:1 with eYFP-tagged receptor and β-arrestin-2 Renilla luciferase; Hanks' balanced salt solution, 37 °C; coelenterazine h 2.5 μM; agonist (C3 or Cmp 1) added for 10 min, with or without pre-incubation with antagonist (GLPG0974, CATPB and others); ratio of luminescence at 535 and 475 nm.

“β-arrestin-2 Renilla luciferase (from UniProt P32121 1-409)”: the binding entry is reported as “binds”.
